Article doi:10.1101/617910
No constants are given. Whether binding was seen depends on the method and setting. Binding can be weak; no strength is given.

The chains behind the UniProt entries cited, without tags or fusion partners. Where a name states a change or a piece, a line headed by the entry shows the natural chain unless it says otherwise.
UniProt P0C0W9: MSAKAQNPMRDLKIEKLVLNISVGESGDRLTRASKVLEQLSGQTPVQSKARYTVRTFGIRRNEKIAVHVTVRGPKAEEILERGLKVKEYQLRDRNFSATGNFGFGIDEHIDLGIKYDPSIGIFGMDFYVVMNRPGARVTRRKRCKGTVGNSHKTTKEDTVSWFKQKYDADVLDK
UniProt P41819: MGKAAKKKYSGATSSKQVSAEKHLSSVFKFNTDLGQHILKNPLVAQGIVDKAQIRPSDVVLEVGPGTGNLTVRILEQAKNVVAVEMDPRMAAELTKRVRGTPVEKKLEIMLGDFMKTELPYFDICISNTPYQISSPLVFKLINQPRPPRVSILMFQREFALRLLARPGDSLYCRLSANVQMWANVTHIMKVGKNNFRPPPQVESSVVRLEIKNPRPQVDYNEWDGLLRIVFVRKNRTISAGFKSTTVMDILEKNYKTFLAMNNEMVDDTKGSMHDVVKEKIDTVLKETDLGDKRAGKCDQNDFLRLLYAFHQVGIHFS

Molecular target: Rpl11 (yeast (endogenous in the purified pre-ribosomes)) (UniProt P0C0W9)
Experiment: cryo-EM structure

- binding: binds
Substance: Dim1 (from UniProt P41819 1-318)
